Source: US20190352409A1 (AUTOLUS, published 2019)
No constants are given. Whether binding was seen depends on the method and setting. Some results given as binding are weak or reduced against the parent protein; the word gives no strength.

T1: recombinant human TACI purified protein (Peprotech, 310-17) (human) (UniProt O14836)
T1 sequence (looked up): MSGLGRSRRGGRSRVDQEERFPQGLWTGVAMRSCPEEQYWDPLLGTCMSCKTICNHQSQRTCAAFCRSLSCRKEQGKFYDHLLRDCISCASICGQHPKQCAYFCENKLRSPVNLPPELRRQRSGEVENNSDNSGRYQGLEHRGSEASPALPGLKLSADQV

T2: Transmembrane activator and calcium modulator and cyclophilin ligand (CAML) interactor (TACI), on cells (human) (UniProt O14836)
T2 sequence (looked up): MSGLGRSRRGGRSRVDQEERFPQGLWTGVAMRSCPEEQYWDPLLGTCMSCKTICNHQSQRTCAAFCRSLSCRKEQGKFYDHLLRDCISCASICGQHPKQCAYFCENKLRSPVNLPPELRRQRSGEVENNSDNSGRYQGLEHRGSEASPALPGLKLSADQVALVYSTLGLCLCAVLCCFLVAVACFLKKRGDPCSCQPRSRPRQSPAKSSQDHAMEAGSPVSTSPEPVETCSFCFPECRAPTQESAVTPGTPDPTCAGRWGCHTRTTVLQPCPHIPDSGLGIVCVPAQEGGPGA


Experiments:
[1] = target: T1, recombinant human TACI purified protein (Peprotech, 310-17) (human); assay: ELISA of hybridoma supernatant on recombinant human TACI
[2] = target: T2, Transmembrane activator and calcium modulator and cyclophilin ligand (CAML) interactor (TACI), on cells (human); assay: flow cytometry on TACI positive SupT1 cells (FIG. 6b)
[3] = target: T2, Transmembrane activator and calcium modulator and cyclophilin ligand (CAML) interactor (TACI), on cells (human); assay: flow cytometry of hybridoma supernatant on SupT1 cells overexpressing TACI

Row | binding [1] | binding [2] | binding [3] | Binder
1 | binds |  |  | 1G6 anti-TACI monoclonal antibody (mouse hybridoma) (antibody, V domains shown, Tested as hybridoma supernatant from BalBC mice) VH: QVQLKQSGPGLVAPSQSLSITCTVSGFSLTSYGVDWVRQSPGKGLEWLGIIWGGGRTNYNSAFKSRLSISKDNSKSQVFLKMNSLQTDDTAMYYCASGDRAADYWGQGTSVTVSS VL: DIVMTQSQKFMSTTVGDRVTITCKASQNVGTAVAWYQQKPGQSPKLLIYSASNRYTGVPVRFTGSGSGTDFTLTINNMQSEDLADYFCQQYSSYPLTFGAGTKLELK
2 | binds | binds | binds | 2H6 anti-TACI monoclonal antibody (mouse hybridoma) (antibody, V domains shown) VH: EVQLQQSGPELVKPGASVRMSCKASGYTFTNYVMHWVKQKPGQGLEWIGYINPSNDDTKYTEKFKGKATLTSDKSSSTAYMELSSLTSEDSAVYYCARGTHGDYYALDYWGQGTSVTVSS VL: DIVLTQSPASLAVSLGQSVTISCRASESVEYYGTSLMQWYQQKPGQAPKLLIYGASNVESGVPARFSGSGSGTDFSLNIHPVEEDDIAMYFCQQSRKVPWTFGGGTKLEI
3 | binds |  |  | 2G2 anti-TACI monoclonal antibody (mouse hybridoma) (antibody, V domains shown, Tested as hybridoma supernatant from BalBC mice) VH: QVTLKESGPGMLQPSQTLSLTCSFSGFSLSTFGMGVGWIRQPSGKGLEWLAHIWWDDAQYSNPALRSRLTISKDTSKNQVFLKIANVDTADTATYYCSRIHSYYSYDEGFAYWGQGTLVTVSS VL: DIVMTQSQKFMSTTVGDRVSITCKASQNVGTAVAWYQQKPGQSPKLLIYSASNRYTGVPDRFTGSGSGTDFTLTISNMQSEDLADYFCQQYSSYRTFGGGTKLEIKR
4 | binds |  |  | 4B11 anti-TACI monoclonal antibody (mouse hybridoma) (antibody, V domains shown, Tested as hybridoma supernatant from BalBC mice) VH: EVQLQQSVAELVRPGASVKLSCTASGFNIKNTYIHWVKQRPEQGLEWIGKIDPANGNSEYAPKFQGKATITADTSSNTAYLQLSSLTSEDTTIYYCTSGYGAYWGQGTTLTVSS VL: DIVLSQSPSSLAVSIGEKVTLSCKSSQSLLYSSNQKNYLAWFQQKPGQSLKLLIYWASTREFGVPDRFTGSGSGTDFTLTISSVKTEDLAVYYCQQYYTWTFGGGTKLEIK
